{"sequences": {"note": "Sequences of proteins named here, by UniProt entry; tags and fusion partners are left off.", "UniProt P38936": "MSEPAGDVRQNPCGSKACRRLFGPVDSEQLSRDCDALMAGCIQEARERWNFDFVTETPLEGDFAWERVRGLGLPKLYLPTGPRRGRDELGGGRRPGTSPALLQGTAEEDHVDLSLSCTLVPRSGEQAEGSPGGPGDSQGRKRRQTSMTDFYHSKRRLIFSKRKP", "UniProt P49715": "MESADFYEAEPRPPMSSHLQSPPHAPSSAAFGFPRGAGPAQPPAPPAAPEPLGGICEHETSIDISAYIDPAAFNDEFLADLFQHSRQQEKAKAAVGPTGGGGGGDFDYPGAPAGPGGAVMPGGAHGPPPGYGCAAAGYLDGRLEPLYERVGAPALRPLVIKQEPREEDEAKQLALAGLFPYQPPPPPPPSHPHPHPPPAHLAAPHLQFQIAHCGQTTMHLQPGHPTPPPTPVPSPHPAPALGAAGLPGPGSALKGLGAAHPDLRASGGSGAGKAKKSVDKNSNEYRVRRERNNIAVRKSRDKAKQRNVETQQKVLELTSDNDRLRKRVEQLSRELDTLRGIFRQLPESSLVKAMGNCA"}, "source": "paper PMC4486450", "target": "p21 (Waf1/Cip1) (human) (UniProt P38936)", "assay": "co-IP; HepG2 cells co-transfected with plasmids expressing C/EBPα and p21; extracts three days after transfection; lysate incubated overnight at 4°C with rabbit polyclonal anti-p21 antibody and Protein G Mag Sepharose; immunoblot with anti-C/EBPα antibody", "note": "Results are given in words; binding and its absence hold for the method and conditions named. In cells and extracts the contact can be indirect. Some results given as binding are weak or reduced against the parent protein; the word gives no strength."}
{"substance": "CCAAT/enhancer-binding protein α (from UniProt P49715 1-358)", "values": [{"measurement": "binding", "value": "binds"}]}
